According to PubChem BioAssay AID2685 (National Center for Advancing Translational Sciences (NCATS), 2010):
Some of the results follow. Further columns of the screen follow, without active or inactive calls. Most of these compounds were active or inconclusive in the main read-out, so they are no random draw. The note in brackets gives the kind of curve behind each potency; many fits are weak.

Test: qHTS Assay for Lipid Storage Modulators in Drosophila S3 Cells;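 as to cell number change: cells counted by Cell Tracker Red CMTPX staining in the red channel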
Settings: BODIPY lipid droplet fluorescence, 18-24 h; for cell number change: measured here: cell count max response, cells fed with added oleic acid
Procedure, shortened: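 Drosophila S3 cells got compounds at several concentrations plus oleic acid (400 uM solution). Laser-scanning cytometry with 488 nm excitation read lipid droplets at 500-530 nm and cells at 575-640 nm. Percent activity was relative to 20 uM Triacsin C.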

[1] = measured here: cell number channel AC50, cells fed with added oleic acid
[2] = measured here: lipid fluorescence (Fed channel) AC50, cells fed with added oleic acid

Row | Structure (SMILES) | cell number change | AC50 [1] | AC50 [2]
1 | CCOC(=O)/C(=C\c1ccc(C)cc1)NC(=O)c1ccccc1 | -33.6% | 29.1 µM [falling, single point] | 
2 | COC(=O)c1cccc(NC(=O)Cn2cnc3ccccc3c2=O)c1 | 48.1% | 18.4 µM [rising, single point] | 
3 | Oc1c(Br)cc(Br)cc1CNc1ccccn1 | 8.77% |  | 23.1 µM [rising, single point]
4 | CCOC(=O)c1ccc(-n2c(CN3CCN(CCO)CC3)nc3ccc([N+](=O)[O-])cc3c2=O)cc1 | 9.88% | 0.82 µM [rising, partial curve, poor fit] | 0.517 µM [rising, full curve, poor fit]
5 | COc1ccc(C(CCNCc2ccc(OC(C)C)cc2)c2ccccc2OC)cc1 (configuration not stated) | -98.2% | 18.4 µM [falling, partial curve] | 3.66 µM [falling, single point]
6 | COc1cccc(-c2nc(S(=O)(=O)c3ccccc3)c(N3CCOCC3)o2)c1 | -21.9% |  | 5.17 µM [rising, full curve]
7 | Cc1nc(SCC(O)CO)c([N+](=O)[O-])[nH]1 (configuration not stated) | -12.1% |  | 0.13 µM [falling, full curve, poor fit]
8 | O=C(COC(=O)c1cccnc1Cl)NCCC1=CCCCC1 | -30.2% |  | 0.1 µM [rising, full curve, poor fit]
9 | CCN(CC)c1ccc(C(=O)NNC(=O)CCNC(=O)c2ccccc2)cc1 | -19.4% |  | 0.206 µM [falling, full curve]
10 | O=C(Cn1cc(C(=O)COc2ccccc2)c2ccccc21)NCc1ccco1 | -4.37% |  | 2.59 µM [rising, partial curve, poor fit]
11 | Cc1onc(-c2ccccc2)c1C(=O)N1CCN(S(=O)(=O)c2ccc(OC(F)(F)F)cc2)CC1 | 4.5% |  | 0.58 µM [rising, single point]
12 | Cc1ccc(C)c(S(=O)(=O)Nc2ccc3[nH]c(=O)[nH]c3c2)c1 | 17.2% | 0.00517 µM [rising, full curve, poor fit] | 20.6 µM [falling, single point]
13 | O=C(O)CSC(=S)N1CCCC1 |  | 0.0461 µM [rising, full curve, poor fit] | 
14 | Cc1cc(C)cc(NC(=O)Oc2ccccc2N2CCCCC2)c1 | 36.3% | 5.8 µM [rising, partial curve] | 
15 | CCn1nnnc1SCC(=O)Nc1cc(OC)cc(OC)c1 | -1.42% |  | 0.461 µM [rising, full curve, poor fit]
16 | Cc1ccccc1C(=O)NC(=S)NC1CCSC1=O (configuration not stated) | 58.9% | 16.4 µM [rising, single point] | 29.1 µM [rising, single point]
17 | COc1ccc(/C=C/C(=O)NCCc2ccc(OC)c(OC)c2)cc1 | -36.8% | 6.51 µM [falling, partial curve] | 5.17 µM [falling, partial curve]
18 | CC(C)=CCCC(C)CN1CCC(n2nccc2NC(=O)C2CCCC2)CC1 (configuration not stated) | -17.3% |  | 6.51 µM [rising, single point]
19 | Cc1ccccc1NC(=O)CN1C(=O)NC2(CCCCC2)C1=O | 34.6% | 25.9 µM [rising, single point] | 16.4 µM [rising, single point]

Two compounds drawn at random from those above:
Row | Structure (SMILES) | cell number change | AC50 [1] | AC50 [2]
2 | COC(=O)c1cccc(NC(=O)Cn2cnc3ccccc3c2=O)c1 | 48.1% | 18.4 µM [rising, single point] | 
9 | CCN(CC)c1ccc(C(=O)NNC(=O)CCNC(=O)c2ccccc2)cc1 | -19.4% |  | 0.206 µM [falling, full curve]

(further entries)

Row | Structure (SMILES) | cell number change | AC50 [1] | AC50 [2]
20 | C=CCn1c(Cc2cccs2)nnc1SCC(=O)Nc1cccc(OC)c1 | 30.3% | 14.6 µM [rising, single point] | 29.1 µM [rising, single point]
21 | O=C(COc1ccc(/C=N/NC(=O)c2cc3ccccc3o2)cc1Br)Nc1ccccc1 | -7.18% |  | 2.06 µM [falling, partial curve]
22 | COc1ccc(Cc2nn3c(-c4cc(OC)c(OC)c(OC)c4)nnc3s2)cc1 |  | 1.64 µM [rising, partial curve] | 1.46 µM [rising, partial curve]
23 | CCN(CC)S(=O)(=O)c1ccc(NC2=NS(=O)(=O)c3ccccc32)cc1 | -0.347% |  | 
24 | O=c1oc2ccccc2c(NC2CCCCC2)c1NS(=O)(=O)c1ccc(Cl)cc1 | -37.8% | 32.6 µM [falling, single point] | 
25 | COc1ccc(CN2CC(C(=O)NCCCN3CCCCC3)CC2=O)cc1 (configuration not stated) | -34.4% | 7.31 µM [falling, partial curve] | 
26 | CC1(c2ccc(OC(F)F)cc2)NC(=O)N(CC(=O)Nc2ccc(N3CCCCC3)cc2)C1=O (configuration not stated) |  |  | 6.51 µM [rising, single point]
27 | O=C(/C=C/c1ccccc1)Nc1ccc(Cl)cn1 | -0.319% | 6.51 µM [rising, single point] | 
28 | CCc1c(C)nc(SCC(=O)N2CCCCC2)[nH]c1=O | 29.8% |  | 20.6 µM [rising, single point]
29 | CCNC(=S)Nc1cc(-c2ccc(Cl)cc2)[nH]n1 | 7.85% |  | 0.164 µM [falling, full curve, poor fit]
30 | CC1=C(C(=O)Nc2cc(C)ccn2)C(c2ccc(C)cc2)C2=C(CCCC2=O)N1 (configuration not stated) | -2.55% |  | 
31 | CN1C(=O)c2ccccc2N(C)C1c1ccccc1Cl (configuration not stated) | 31% | 9.2 µM [rising, partial curve, poor fit] | 
32 | O=C(CSc1nc2ccccc2c(=O)[nH]1)Nc1cccc([N+](=O)[O-])c1 | 8.42% | 2.91 µM [rising, single point] | 
33 | Oc1ccc(NC(=S)N=Nc2c(O)[nH]c3ccc(Br)cc23)cc1 | -56.1% | 16.4 µM [falling, single point] | 29.1 µM [falling, single point]
34 | COc1ccccc1CNC(=O)c1cnc2ccccn2c1=O | 58.9% | 6.51 µM [rising, partial curve] | 4.11 µM [rising, partial curve]
35 | CCOC(=O)N1CCN(c2c(NCc3ccc(Cl)cc3)c(=O)c2=O)CC1 | -28.6% |  | 29.1 µM [falling, partial curve, poor fit]
36 | O=c1[nH]c(C(Cl)Cl)nc2sc3c(c12)CCN(Cc1ccccc1)C3 | 4.71% |  | 0.00411 µM [falling, full curve, poor fit]
37 | CC1CC(C)CN(CCCNC(=O)CCNC(=O)Cn2ccc3ccccc3c2=O)C1 (configuration not stated) | -106% | 32.6 µM [falling, partial curve] | 5.8 µM [rising, partial curve, poor fit]
38 | Cc1ccc2c(c1)c1c(n2CC(O)CNC2CCCC2)CCCC1 (configuration not stated) | 2.17% |  | 

Row | Structure (SMILES) | cell number change | AC50 [1] | AC50 [2]
39 | CCc1ccccc1Oc1ccc(S(=O)(=O)N2CCN(C)CC2)cn1 |  | 6.51 µM [rising, single point] | 
40 | CC(C)(O)[C@H](O)COc1c2ccoc2cc2oc(=O)ccc12 | 21.1% |  | 3.26 µM [rising, partial curve]
41 | Cc1cc2ccccc2c(=O)n1CC(=O)NCC(=O)N1CCN(c2ccccc2)CC1 | -26.5% |  | 
42 | N#Cc1c(N)n(CCOC(=O)c2cccc(Br)c2)c2nc3ccccc3nc12 | -32.1% | 29.1 µM [falling, single point] | 1.84 µM [rising, full curve]
43 | C=C(C)C(=O)Nc1nnc(-c2cccs2)s1 | -48.9% | 32.6 µM [falling, single point] | 32.6 µM [falling, single point]
44 | O=C(/C=C/c1c(F)cccc1Cl)Nc1nc2ccccc2[nH]1 | 5.09% |  | 18.4 µM [rising, single point]
45 | CCOc1ccccc1C(=O)N/N=C/c1coc2ccc(Cl)cc2c1=O | -6.65% |  | 32.6 µM [falling, partial curve, poor fit]
46 | O=C(NCC1CCCO1)c1ccccc1-c1nc(-c2ccc(Cl)cc2)no1 (configuration not stated) |  |  | 5.17 µM [rising, partial curve]
47 | CC1(C(=O)NC(=S)N(CCC#N)c2ccccc2)CC1(Cl)Cl (configuration not stated) |  | 1.16 µM [falling, full curve] | 6.51 µM [falling, single point]
48 | NS(=O)(=O)c1ccc(NC(=O)COC(=O)C2CC(=O)N(Cc3ccccc3)C2)cc1 (configuration not stated) | 52.1% |  | 
49 | Cc1ccc(/C=N/n2nnnc2N)cc1[N+](=O)[O-] | -29.7% |  | 
50 | COc1ccccc1NC(=O)C(C)NC(c1ccccc1)c1ccccc1 (configuration not stated) | 18.7% |  | 4.47 µM [rising, full curve, poor fit]
51 | Cc1ccc(-c2cn(CCC(=O)O)c(-c3ccc(Cl)nc3)n2)cc1 | -18.5% |  | 5.17 µM [rising, partial curve, poor fit]
52 | Cc1cc(OCC(=O)O/N=C(\N)c2ccccc2)ccc1Br | 9.35% |  | 4.11 µM [rising, full curve, poor fit]
53 | O=C(NN1C(=O)NC2(CCCCC2)C1=O)c1ccc(-c2ccc([N+](=O)[O-])cc2)o1 | 7.6% |  | 7.31 µM [rising, partial curve]
54 | CCCC(C(=O)O)n1c(O)c(C=C2N=c3ccccc3=N2)sc1=S (configuration not stated) | 7.1% |  | 0.651 µM [rising, single point]
55 | O=C(COC(=O)/C=C/C(=O)OCC(=O)NC12CC3CC(CC(C3)C1)C2)NC12CC3CC(CC(C3)C1)C2 | -43.5% | 23.1 µM [falling, partial curve, poor fit] | 18.4 µM [falling, partial curve]
56 | CCOc1ccccc1NS(=O)(=O)N(C)C | 10% |  | 0.00461 µM [rising, full curve, poor fit]
57 | C[C@]12CC[C@@H]3c4ccc(O)cc4CC[C@H]3[C@@H]1C[C@@H](O)[C@@H]2O[C@@H]1O[C@H](C(=O)O)[C@@H](O)[C@H](O)[C@H]1O | 24% |  | 11.6 µM [rising, single point]
